Test results: the supplement of paper PMC8728848
This is one part of the list.

How the values were obtained:
Experiment in all cases: glycan array binding signal (z-score within array); higher = stronger binding
Conditions in all cases: glycan notation: IUPAC condensed, linker removed
[1] = molecular target: Gal(b1-4)GlcNAc(b1-2)Man(a1-3)[GlcNAc(b1-2)Man(a1-6)]Man(b1-4)GlcNAc(b1-4)GlcNAc
Procedure, shortened: (§1)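 Arrays were curated from the Consortium for Functional Glycomics database, 3228 in total, and kept only where the protein sequence was available. Binding is expressed as a within-array Z-score. This score was averaged across arrays of the same protein sequence at different concentrations or buffers and across linkers, and negative values can be read as non-binding.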

[2] = molecular target: Gal(b1-4)GlcNAc(b1-2)Man(a1-3)[GlcNAc(b1-4)][Gal(b1-4)GlcNAc(b1-2)Man(a1-6)]Man(b1-4)GlcNAc(b1-4)GlcNAc
Procedure, shortened: as §1

[3] = molecular target: Gal(b1-4)GlcNAc(b1-2)Man(a1-3)[Man(a1-6)]Man(b1-4)GlcNAc(b1-4)GlcNAc
Procedure, shortened: as §1

[4] = molecular target: Gal(b1-4)GlcNAc(b1-2)Man(a1-6)Man(b1-4)GlcNAc(b1-4)GlcNAc
Procedure, shortened: as §1

[5] = molecular target: Gal(b1-4)GlcNAc(b1-2)Man(a1-6)[GlcNAc(b1-2)Man(a1-3)]Man(b1-4)GlcNAc(b1-4)GlcNAc
Procedure, shortened: as §1

[6] = molecular target: Gal(b1-4)GlcNAc(b1-2)Man(a1-6)[Man(a1-3)]Man(b1-4)GlcNAc(b1-4)GlcNAc
Procedure, shortened: as §1

[7] = molecular target: Gal(b1-4)GlcNAc(b1-2)[Gal(b1-4)GlcNAc(b1-4)]Man(a1-3)[Gal(b1-4)GlcNAc(b1-2)Man(a1-6)]Man(b1-4)GlcNAc(b1-4)GlcNAc
Procedure, shortened: as §1

[8] = molecular target: Gal(b1-4)GlcNAc(b1-2)[Gal(b1-4)GlcNAc(b1-4)]Man(a1-3)[Gal(b1-4)GlcNAc(b1-2)[Gal(b1-4)GlcNAc(b1-6)]Man(a1-6)]Man(b1-4)GlcNAc(b1-4)GlcNAc
Procedure, shortened: as §1

[9] = molecular target: Gal(b1-4)GlcNAc(b1-2)[Gal(b1-4)GlcNAc(b1-4)]Man(a1-3)[GlcNAc(b1-4)][Gal(b1-4)GlcNAc(b1-2)Man(a1-6)]Man(b1-4)GlcNAc(b1-4)GlcNAc
Procedure, shortened: as §1

[10] = molecular target: Gal(b1-4)GlcNAc(b1-2)[Gal(b1-4)GlcNAc(b1-4)]Man(a1-3)[GlcNAc(b1-4)][Gal(b1-4)GlcNAc(b1-2)[Gal(b1-4)GlcNAc(b1-6)]Man(a1-6)]Man(b1-4)GlcNAc(b1-4)GlcNAc
Procedure, shortened: as §1

[11] = molecular target: Gal(b1-4)GlcNAc(b1-2)[Gal(b1-4)GlcNAc(b1-6)]Man(a1-6)[Gal(b1-4)GlcNAc(b1-2)Man(a1-3)]Man(b1-4)GlcNAc(b1-4)GlcNAc
Procedure, shortened: as §1

[12] = molecular target: Gal(b1-4)GlcNAc(b1-2)[Gal(b1-4)GlcNAc(b1-6)]Man(a1-6)[Gal(b1-4)GlcNAc(b1-2)Man(a1-3)]Man(b1-4)GlcNAc(b1-4)[Fuc(a1-6)]GlcNAc
Procedure, shortened: as §1

[13] = molecular target: Gal(b1-4)GlcNAc(b1-2)[Gal(b1-4)GlcNAc(b1-6)]Man(a1-6)[GlcNAc(b1-4)][Gal(b1-4)GlcNAc(b1-2)Man(a1-3)]Man(b1-4)GlcNAc(b1-4)GlcNAc
Procedure, shortened: as §1

[14] = molecular target: Gal(b1-4)GlcNAc(b1-2)[Gal(b1-4)GlcNAc(b1-6)]Man(a1-6)[GlcNAc(b1-4)][Gal(b1-4)GlcNAc(b1-2)[Gal(b1-4)GlcNAc(b1-4)]Man(a1-3)]Man(b1-4)GlcNAc(b1-4)[Fuc(a1-6)]GlcNAc
Procedure, shortened: as §1

[15] = molecular target: Gal(b1-4)GlcNAc(b1-3)Gal(b1-3)GalNAc
Procedure, shortened: as §1

[16] = molecular target: Gal(b1-4)GlcNAc(b1-3)Gal(b1-3)GlcNAc
Procedure, shortened: as §1

[17] = molecular target: Gal(b1-4)GlcNAc(b1-3)Gal(b1-4)Glc
Procedure, shortened: as §1

[18] = molecular target: Gal(b1-4)GlcNAc(b1-3)Gal(b1-4)GlcNAc
Procedure, shortened: as §1

[19] = molecular target: Gal(b1-4)GlcNAc(b1-3)Gal(b1-4)GlcNAc(b1-2)Man(a1-3)[Gal(b1-4)GlcNAc(b1-3)Gal(b1-4)GlcNAc(b1-2)Man(a1-6)]Man(b1-4)GlcNAc(b1-4)GlcNAc
Procedure, shortened: as §1

B1: Flo1 (Saccharomyces cerevisiae), P32768 (protein)
chain: SGATEACLPAGQRKSGMNINFYQYSLKDSSTYSNAAYMAYGYASKTKLGSVGGQTDISIDYNIPCVSSSGTFPCPQEDSYGNWGCKGMGACSNSQGIAYWSTDLFGFYTTPTNVTLEMTGYFLPPQTGSYTFKFATVDDSAILSVGGATAFNCCAQQQPPITSTNFTIDGIKPWGGSLPPNIEGTVYMYAGYYYPMKVVYSNAVSWGTLPISVTLPDGTTVSDDFEGYVYSFDDDLSQSNCTVPDPSNY
glycan array binding signal (z-score) [1]: -0.584
glycan array binding signal (z-score) [2]: -0.208
glycan array binding signal (z-score) [3]: -0.397
glycan array binding signal (z-score) [4]: -0.4
glycan array binding signal (z-score) [5]: -0.071
glycan array binding signal (z-score) [6]: 0.098
glycan array binding signal (z-score) [7]: -0.087
glycan array binding signal (z-score) [8]: 0.251
glycan array binding signal (z-score) [9]: 0.797
glycan array binding signal (z-score) [10]: -0.539
glycan array binding signal (z-score) [11]: 0.321
glycan array binding signal (z-score) [12]: 0.499
glycan array binding signal (z-score) [13]: 0.18
glycan array binding signal (z-score) [14]: -0.584
glycan array binding signal (z-score) [15]: -0.714
glycan array binding signal (z-score) [16]: -0.51
glycan array binding signal (z-score) [17]: -0.214
glycan array binding signal (z-score) [18]: -0.488
glycan array binding signal (z-score) [19]: 0.312
